No constants are given. Whether binding was seen depends on the method and setting. Binding seen in cells or lysates may run through a third protein. Here binding means that the protein was enriched with, or labelled near, the bait; the list need not be complete.
Target: TRIM1-269aa-Flag (human)
Assay: affinity purification with mass spectrometry; IP with anti-Flag antibody (or IgG) from 293T cells with TRIM1-269aa-Flag or control vector (PCDH); gel bands digested with trypsin, LC-MS

binding: binds
B1: MARCKS (myristoylated alanine-rich c-kinase substrate) (protein, UniProt P29966 1-332)
chain: MGAQFSKTAAKGEAAAERPGEAAVASSPSKANGQENGHVKVNGDASPAAAESGAKEELQANGSAPAADKEEPAAAGSGAASPSAAEKGEPAAAAAPEAGASPVEKEAPAEGEAAEPGSPTAAEGEAASAASSTSSPKAEDGATPSPSNETPKKKKKRFSFKKSFKLSGFSFKKNKKEAGEGGEAEAPAAEGGKDEAAGGAAAAAAEAGAASGEQAAAPGEEAAAGEEGAAGGDPQEAKPQEAAVAPEKPPASDETKAAEEPSKVEEKKAEEAGASAAACEAPSAAGPGAPPEQEAAPAEEPAAAAASSACAAPSQEAQPECSPEAPPAEAAE
